Results deposited as PubChem BioAssay AID1671195 (Yale University, 2021)

Screen: 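Knockdowns that increase or decrease uptake of fluorescent LDL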 (primary screen)
System: human Huh7 hepatoma cells
Reagent: siRNA pool against human genes, 18 nM
Time to read-out: about 2 to 2.5 days of knockdown, then 8 h LDL uptake
Treatment: DiI-labelled LDL at 30 µg/ml for 8 h, in lipoprotein-deficient serum medium
Read-out: 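Fluorescent LDL signal imaged in cells, scaled to the plate median, robust z-score for each replicate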
Reading the numbers: robust z-score: higher = more LDL uptake after knockdown
Rule for the call: 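a gene counts as active if at least two replicate z-scores exceed ±2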
The whole screen tested about 22,000 reagents; shown is an unselected part. About 1,510 of all reagents (6.9%) count as active. 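Active includes knockdowns raising or lowering LDL uptake; positive z-scores mean more uptake, negative mean less.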 A number with no mark means an inactive call. Reagents against one gene are numbered here.

| Target gene | reagent | robust z-score, replicate 1 | robust z-score, replicate 2 | robust z-score, replicate 3 |
| --- | --- | --- | --- | --- |
| TKFC | 1 | -0.753 | -0.426 | -1.25 |
| ZNRF4 | 1 | -1.34 | -0.612 | -1.48 |
| LCOR | 1 | -1.27 | -0.848 | -0.88 |
| LCOR | 2 | -1.68 | -1.49 | -0.847 |
| SPRTN | 1 | -0.149 | -0.637 | 0.383 |
| LOC400144 (retired record) | 1 | 0.312 | -0.508 | -0.821 |
| ATP2C1 | 1 | 1.32 | 1.32 | 0.926 |
| ATP1A3 | 1 | 0.0529 | 0.23 | -0.0374 |
| ZNF415 | 1 | -0.837 | 0.0113 | 1.14 |
| SAMD4A | 1 | 0.583 | -0.258 | 0.176 |
| OR5A1 | 1 | -0.89 | -1.33 | -1.08 |
| PRR13 | 1 | -0.682 | 0.845 | 0.885 |
| NFE2L2 | 1 | 0.22 | -0.127 | 0.0589 |
| OR4A15 | 1 | 2.59 (active) | 2.83 | 2.85 |
| TFPT | 1 | 0.264 | -0.787 | 0.325 |
| LINC01138 | 1 | 1.46 | 0.871 | 0.446 |
| SERTAD1 | 1 | -2.07 | 0.364 | -0.274 |
| FNTB | 1 | -1.05 | -0.913 | -0.696 |
| CTSH | 1 | 0.242 | -0.411 | 0.166 |
| LOC390865 (retired record) | 1 | -1.82 | -1.82 | -1.68 |
| LOC442200 (retired record) | 1 | 0.824 | -0.0876 | 0.362 |
| LITAF | 1 | -0.0783 | -0.747 | -0.932 |
| REDIC1 | 1 | 0.209 | 0.0633 | 0.273 |
| BTG2 | 1 | -2.07 | -1.6 | -1.63 |
| LOC343854 (retired record) | 1 | 0.226 | -0.118 | 0.163 |
| HGD | 1 | -0.38 | -0.0294 | -0.149 |
| ZFP41 | 1 | -0.425 | -0.651 | -0.327 |
| NECTIN2 | 1 | 1.88 | 1.61 | 1.59 |
| ZMYND19 | 1 | -1.36 | -1.23 | -2 |
| RAD51AP2 | 1 | -0.905 | -1.11 | -1.12 |
| TFAP2A | 1 | -0.139 | 0.00322 | 0.156 |
| PSTPIP2 | 1 | -1.79 | -0.947 | -2.32 |
| ZNF410 | 1 | -0.734 | -0.518 | -0.372 |
| ADCYAP1R1 | 1 | -0.389 | -0.359 | -0.622 |
| TCEAL6 | 1 | 1.95 (active) | 2.04 | 2.11 |
| TRIP4 | 1 | 1.03 | 0.0818 | -0.0219 |
| C1orf162 | 1 | 0.819 | 0.809 | 1.29 |
| CNKSR3 | 1 | -1.55 | -1.04 | -1.34 |
| ZMYND8 | 1 | -0.942 | 0.32 | -1.08 |
| FA2H | 1 | -0.63 | -0.158 | -1.03 |
| C1orf74 | 1 | 0.917 | -0.269 | 0.592 |
| EZRP1 | 1 | -0.169 | -0.156 | 0.264 |
| MIB2 | 1 | 1.29 (active) | 3.31 | 2.64 |
| OR11G2 | 1 | 1.55 | 1.58 | 1.46 |
| LACTB2 | 1 | -1.54 | -0.186 | -0.193 |
| BHLHE40 | 1 | -0.368 | -0.197 | -0.332 |
| LYRM7 | 1 | 1.36 | 1.74 | 0.868 |
| DMBX1 | 1 | -0.727 | -0.00721 | -0.846 |
| WDR83 | 1 | 0.712 | 0.524 | 0.875 |
| COLQ | 1 | -1.51 | -1.5 | -1.76 |
| SMYD5 | 1 | 0.499 | 0.606 | 0.846 |
| LOC339771 (retired record) | 1 | 1.23 | 0.915 | 1.02 |
| SLC22A11 | 1 | -1.42 | -0.786 | -0.836 |
| NHSL3 | 1 | -0.148 | -1.12 | -1.2 |
| KCNQ2 | 1 | 0.99 | 1.45 | 0.386 |
| GSG1L | 1 | 0.783 | 0.171 | 0.757 |
| SERHL2 | 1 | 0.209 | 0.309 | 0.256 |
| CASC3 | 1 | 1.52 | -0.457 | 1.03 |
| ZFTRAF1 | 1 | -0.514 | -1.25 | -0.219 |
| HPSE | 1 | -0.0621 | -0.748 | -0.134 |
| LOC441033 (retired record) | 1 | -0.363 | -0.0689 | -0.464 |
| OR1F1 | 1 | 2.16 | 1.73 | 1.85 |
| OAS2 | 1 | -0.118 | -0.776 | -0.533 |
| SLC33A1 | 1 | 0.0194 | -0.0547 | -0.597 |
| RETNLB | 1 | 3.59 (active) | 2.72 | 3.84 |
| MATN3 | 1 | -2.22 (active) | -1.92 | -1.91 |
| PLEC | 1 | -0.249 | -0.0204 | -0.526 |
| HNRNPA3 | 1 | -0.316 | -0.231 | -0.752 |

Reprinted from the entries so far for reference:
| Target gene | reagent | robust z-score, replicate 1 | robust z-score, replicate 2 | robust z-score, replicate 3 |
| --- | --- | --- | --- | --- |
| C1orf74 | 1 | 0.917 | -0.269 | 0.592 |
| EZRP1 | 1 | -0.169 | -0.156 | 0.264 |
| MIB2 | 1 | 1.29 (active) | 3.31 | 2.64 |
